According to PubChem BioAssay AID493014 (National Center for Advancing Translational Sciences (NCATS), 2011):
Some of the results follow. Further columns of the screen follow, without active or inactive calls. Most of these compounds were active or inconclusive in the main read-out, so they are no random draw. Words in brackets tell the shape of the fitted curve; partial curves, single points and poor fits give uncertain potencies.

Experiment: qHTS Assay to Find Inhibitors of Chronic Active B-Cell Receptor Signaling
Details: ABC-DLBCL IkBa-CBG/CBR reporter, luminescence ratio (green luciferase fused to IkBa over red control in TMD8 lymphoma cells), 4 h
Summary of the method: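 TMD8 human ABC-DLBCL cells with doxycycline-inducible IκBα–green luciferase fusion and unfused red luciferase, in 0.5% FBS medium; compounds up to 46 uM, 4 h at 37C. Green/red luminescence ratio, filter-overlap corrected, fitted to concentration-response curves.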

[1] = measured here: CBR red luminescence, cell number
[2] = measured here: IkBa-CBG green luminescence

| Compound | AC50 [1] | AC50 [2] |
| --- | --- | --- |
| Cc1ccc(C(c2c(C)[nH][nH]c2=O)c2c(C)[nH][nH]c2=O)cc1 | 7.08 µM [falling, partial curve] |  |
| COCc1ccc(CN2CCCC(C(=O)Nc3ccc(-c4cccc(OC)c4)cc3)C2)o1 (stereo not given) | 14.1 µM [falling, single point] |  |
| CN1CCN(C(=O)c2cnn3c(C(F)F)cc(C4CC4)nc23)CC1 | 1.84 µM [rising, partial curve, poor fit] |  |
| CN(C(=O)CSc1nnc(-c2cccs2)n1C1CC1)C1CCS(=O)(=O)C1 (stereo not given) | 6.51 µM [rising, single point] |  |
| Cc1cccc(NS(=O)(=O)c2ccc3c(c2)Cc2cc(S(=O)(=O)Nc4cccc(C)c4C)ccc2-3)c1C | 7.31 µM [falling, partial curve, poor fit] |  |
| Cc1cnc(C(=O)OCC(=O)c2csc(N3CCCCC3)n2)cn1 | 3.98 µM [rising, full curve, poor fit] |  |
| OCCC1CN(Cc2cccc3nonc23)CCN1Cc1ccsc1 (stereo not given) | 4.47 µM [falling, partial curve, poor fit] |  |
| COCCCNCCOCCSc1ccc(Cl)cc1 | 20.6 µM [falling, partial curve, poor fit] |  |
| Cn1c(=O)cc(C(=O)N/N=C/c2ccc(Cl)cc2)[nH]c1=O | 11.2 µM [falling, partial curve] |  |
| COc1ccc(/C=N/NC(=O)c2nc(-c3ccccc3)cc(-c3ccccc3)n2)cc1OC | 2.51 µM [rising, partial curve, poor fit] |  |
| CC(=O)Nc1cccc(NC(=O)Cc2ccc3ccccc3c2)c1 | 4.47 µM [falling, full curve] |  |
| O=C(CN1CCN(S(=O)(=O)c2ccc(Cl)s2)CC1)N1CCCCC1 | 16.4 µM [rising, partial curve, poor fit] |  |
| Cc1ccccc1C(=O)NNC1=NCCC1 | 0.82 µM [falling, full curve, poor fit] |  |
| CCc1cccc(NC(=O)CCCN2C(=O)NC(C)(C)C2=O)c1 | 29.1 µM [rising, single point] |  |
| O=C(c1ccc(COc2ccccc2Br)cc1)N1CCCCC1 | 29.1 µM [falling, partial curve, poor fit] |  |
| COCc1cc(=O)oc2cc(NC(=O)c3ccc(C(C)(C)C)cc3)ccc12 | 14.1 µM [rising, single point] |  |
| COc1cccc(/C=N/Nc2nc3ccccc3n3cnnc23)c1O | 1.46 µM [falling, full curve, poor fit] | 3.66 µM [rising, full curve, poor fit] |
| CCC(=O)Nc1ccc(-c2nn3c(C)nnc3s2)cc1C | 9.2 µM [falling, partial curve, poor fit] |  |
| Cc1ccc(N=Cc2cc3c(cc2O)OC(N)=C(C#N)C3c2ccccc2)cc1 (stereo not given) | 5.17 µM [falling, full curve] |  |
| CCOC(=O)c1csc(NC(=O)c2ccc(C#N)cc2)n1 | 0.501 µM [falling, full curve] |  |
| Cc1ccc(-c2nc(COC(=O)C3=NN(c4ccccc4)C(=O)CC3)cs2)cc1 | 1.3 µM [falling, full curve] |  |

| Compound | AC50 [1] | AC50 [2] |
| --- | --- | --- |
| COc1ccc(C(C(=O)NCC2CCCO2)N(Cc2ccccc2)C(=O)c2snc(C(N)=O)c2N)cc1OC (stereo not given) | 12.6 µM [rising, partial curve, poor fit] |  |
| CCOC(=O)c1c(C)oc2c1c(C(c1cccnc1)N1CCN(C)CC1)c(O)c1ccccc12 (stereo not given) | 29.1 µM [rising, single point] |  |
| COc1ccc(CNC(=O)COC(=O)c2n[nH]c3ccccc23)cc1OC | 9.2 µM [falling, partial curve, poor fit] |  |
| Cc1ccc(C)c(NC(=O)CCN2C(=O)c3ccccc3C2=O)c1 | 11.2 µM [rising, partial curve, poor fit] |  |
| CCN1CCN(CCCNC(=O)CNC(=O)c2nn(-c3ccc(OC)cc3OC)c(=O)c3ccccc23)CC1 | 6.31 µM [rising, single point] |  |
| O=C(c1ccc2[nH]c3c(c2c1)CCCC3)N1CCN(c2ccc(F)cc2)CC1 |  | 25.9 µM [rising, partial curve, poor fit] |
| Cc1oc2nc(SCC(=O)Nc3ccc(S(N)(=O)=O)cc3)nc(NC(=O)c3ccccc3)c2c1C | 0.13 µM [falling, full curve] |  |
| COC(=O)c1ccc(CO/N=C2\CCCc3nonc32)cc1 | 0.501 µM [rising, full curve, poor fit] |  |
| CCSc1nsc(NC(=O)Nc2ccccc2OC)n1 | 0.398 µM [falling, full curve] |  |
| Clc1ccccc1Cc1noc(CN2CCCCC2c2ccccn2)n1 (stereo not given) | 35.5 µM [rising, single point] |  |
| O=C(NCc1ccccn1)NC12CC3CC(CC(C3)C1)C2 | 6.51 µM [rising, partial curve, poor fit] |  |
| CCOC(=O)c1ccc(NC(=O)CC2SC(=NC)N(C)C2=O)cc1 (stereo not given) | 13 µM [rising, partial curve, poor fit] |  |
| Cn1c2ccc(F)cc2c2nnc(SCC(=O)Nc3cccc(O)c3)nc21 | 17.8 µM [falling, single point] |  |
| O=C(Cc1ccccc1)c1ccccc1C(=O)N1CCCCC1 | 10 µM [rising, partial curve] |  |
| Cc1ccc(NC(=O)C2CCCCC2)c(O)c1 | 12.6 µM [falling, single point] |  |
| O=C(NC1CCc2ccccc21)c1cc(COc2cncc(Cl)c2)on1 (stereo not given) | 11.2 µM [falling, partial curve] |  |
| COc1ccc(CN(CCC(c2ccccc2)c2ccc(OC(C)C)cc2)C(=O)CCl)cc1OC (stereo not given) | 20 µM [falling, partial curve, poor fit] | 12.6 µM [rising, partial curve, poor fit] |
| CCOc1ccccc1N1C(=O)CC(Sc2n[nH]c(-c3ccccc3)n2)C1=O (stereo not given) | 17.8 µM [falling, partial curve] |  |
| Cc1cccc(/C(N)=N/OC(=O)c2ccc3c(c2)OCO3)c1 | 16.4 µM [falling, single point] |  |
| CCN1/C(=C2\C(=O)N(C)C(=S)N2C)C=Cc2cc(C)ccc21 | 11.6 µM [rising, partial curve, poor fit] |  |
| Cc1ccccc1C(=O)Nc1ccccc1N1CCN(C(=O)c2ccccc2)CC1 | 17.8 µM [falling, single point] |  |

A run of entries from further up:

| Compound | AC50 [1] | AC50 [2] |
| --- | --- | --- |
| COC(=O)c1ccc(CO/N=C2\CCCc3nonc32)cc1 | 0.501 µM [rising, full curve, poor fit] |  |
| CCSc1nsc(NC(=O)Nc2ccccc2OC)n1 | 0.398 µM [falling, full curve] |  |
| Clc1ccccc1Cc1noc(CN2CCCCC2c2ccccn2)n1 (stereo not given) | 35.5 µM [rising, single point] |  |

(continued)

| Compound | AC50 [1] | AC50 [2] |
| --- | --- | --- |
| C/C(=N\NC(=S)Nc1cc(S(=O)(=O)N2CCOCC2)ccc1Cl)c1ccccc1F | 5.8 µM [rising, partial curve, poor fit] | 5.8 µM [falling, single point] |
| N#Cc1nc(-c2ccccc2F)oc1NCCN1CCOCC1 | 2.06 µM [rising, partial curve] |  |
| CC/C(=N\O)c1c(O)c2c(n(-c3ccccc3)c1=O)CCCC2 | 13 µM [rising, partial curve, poor fit] |  |
| COc1cccc(OC)c1C(=O)Nc1ccccc1N1CCCC1 | 29.1 µM [rising, partial curve, poor fit] |  |
| CCOc1ccccc1NC(=O)CSc1nc2[nH]ncc2c(=O)[nH]1 | 14.6 µM [falling, partial curve] |  |
| Cc1ccc2nsnc2c1S(=O)(=O)N1CCOCC1 | 2.91 µM [falling, single point] | 4.61 µM [rising, partial curve, poor fit] |
| CCN(CC)CCN1C(=O)C(=O)/C(=C(/O)c2ccc(OC)c(OC)c2)C1c1ccccn1 (stereo not given) | 6.51 µM [rising, single point] |  |
| Cc1cc(C)cc(NC(=O)Cn2cc3c(n2)CCCCC3)c1 | 29.1 µM [rising, single point] |  |
| CC1(C)CC(=O)C2=C(C1)OC(N)=C(C#N)C2c1cccs1 (stereo not given) | 17.8 µM [falling, single point] |  |
| Cc1ccc(S(=O)(=O)N2CCCC2C(=O)NCc2ccccc2Cl)cc1 (stereo not given) | 35.5 µM [falling, single point] |  |
| Cc1cccc(NC(=O)c2ccc3nsnc3c2)c1C | 14.1 µM [falling, partial curve] |  |
| COc1ccccc1NC(=O)C(C)OC(=O)C1COc2ccccc2O1 (stereo not given) | 29.1 µM [falling, single point] |  |
| CCc1ccc2nc(N(CCCN(C)C)C(=O)c3ccc(S(=O)(=O)N(C)C4CCCCC4)cc3)sc2c1 | 35.5 µM [rising, single point] |  |
| O=S(=O)(c1cccc(NC(=S)N2CCN(c3ccccc3)CC2)c1)C(F)F | 18.4 µM [falling, partial curve, poor fit] |  |
| CCS(=O)(=O)c1ccc2oc(Nc3ccccc3Br)nc2c1 | 1.41 µM [rising, partial curve] |  |
| C#CCOCCOCCOCCNc1nc(N2CCN(C(=O)CCCCCCCCCCNC(=O)[C@H](CCCCN)n3cc(C[C@@H](C)CC)nn3)CC2)nc(N2CCN(C(=O)CCCCCCCCCCNC(=O)[C@H](CCCN=C(N)N)n3cc(C[C@@H](C)CC)nn3)CC2)n1 | 8.2 µM [falling, single point] |  |
| CC(C)(C)C(=O)NCc1ccc(C(=O)CSc2nnc(C3CC3)n2C2CC2)s1 | 23.1 µM [rising, partial curve, poor fit] |  |
| CCCS(=O)(=O)c1c(S(=O)(=O)CCC)c2c(C)cccn2c1C(=O)N/N=C/c1cc(O)cc(O)c1 | 8.91 µM [falling, partial curve] |  |
| O=C(NCC1CCCO1)c1cc2ccccc2oc1=O (stereo not given) | 11.2 µM [falling, partial curve, poor fit] |  |
